Experimental data as given in PubChem BioAssay AID330 (DTP/NCI, 2004).
The list is a part of this screen's results and no random one: it is rich in T/C values a quarter to a half above the control, in often repeated tests (any T/C) and in doses without a T/C. Other doses and runs of a compound stand elsewhere. T/C gives the treated animals as a percentage of the vehicle group. Some doses have a count of surviving animals in place of a T/C: the source files T/C as zero there, which appears to mark a toxic dose or a test without result, not a measured value. Some survivor counts are full or nearly so, which does not show that the dose was tolerated: survival well below the control is almost never listed, so the zero probably covers shortened survival too. Counts of survivors are from the toxicity check (mostly the fifth day) where no day follows; animals may have died later. Schedule codes are those of the source, read here as Q, the interval in days (D) or hours (H), X, the number of doses. Where survival is the endpoint, the PubChem record calls one and a half times the control and up active, and a quarter to a half above the control has no call in these data; cut-offs in other NCI protocols can differ. Some entries were tested several times; their values stand side by side, smallest first. Some T/C values are followed by the survivors on the day toxicity was checked, most often the fifth; without a count, all were alive then.

Test system: P388 leukemia ip, CD2F1 mice, survival T/C
Experiment: NCI In Vivo Anticancer Drug Screen. Data for tumor model P388 Leukemia (intraperitoneal) in CD2F1 (CDF1) mice
Conditions: T/C endpoint: median survival time, higher T/C = longer survival
[1] = dose: 100.0 mg/kg/injection, schedule: Q01DX005 (ip), vehicle: saline with Tween-80
[2] = dose: 200.0 mg/kg/injection, schedule: Q01DX005 (ip), vehicle: saline with Tween-80
[3] = dose: 100.0 mg/kg/injection, schedule: Q01DX009 (ip), vehicle: saline
[4] = dose: 200.0 mg/kg/injection, schedule: Q01DX009 (ip), vehicle: saline
[5] = dose: 200.0 mg/kg/injection, schedule: Q01DX009 (ip), vehicle: saline with Tween-80
[6] = dose: 100.0 mg/kg/injection, schedule: Q01DX009 (ip), vehicle: saline with Tween-80
[7] = dose: 100.0 mg/kg/injection, schedule: Q01DX005 (ip), vehicle: Klucel (hydroxypropylcellulose) (HPC)
[8] = dose: 200.0 mg/kg/injection, schedule: Q01DX001 (ip), vehicle: Klucel (hydroxypropylcellulose) (HPC)
[9] = dose: 400.0 mg/kg/injection, schedule: Q01DX001 (ip), vehicle: Klucel (hydroxypropylcellulose) (HPC)

Which results are given for `O=C(O)CSC(=S)CCCCCCCCCCC(=S)SCC(=O)O`?
survivor count [1]: 3 of 6; survivor count [2]: 0 of 6

Which results are given for `CCN1C=C/C(=C/c2cc3scc(-c4ccccc4)[n+]3c3ccccc23)c2ccccc21`?
survivor count (dose: 0.65 mg/kg/injection, schedule: Q04DX003 (ip), vehicle: saline sonified): 0 of 6; survivor count (dose: 1.3 mg/kg/injection, schedule: Q04DX003 (ip), vehicle: saline sonified): 0 of 6; survivor count (dose: 6.25 mg/kg/injection, schedule: Q04DX003 (ip), vehicle: saline with Tween-80): 0 of 6; survivor count (dose: 12.5 mg/kg/injection, schedule: Q04DX003 (ip), vehicle: saline with Tween-80): 0 of 6; survivor count (dose: 25.0 mg/kg/injection, schedule: Q04DX003 (ip), vehicle: saline with Tween-80): 0 of 6; survivor count (dose: 100.0 mg/kg/injection, schedule: Q04DX003 (ip), vehicle: saline with Tween-80): 0 of 6; survivor count (dose: 200.0 mg/kg/injection, schedule: Q04DX003 (ip), vehicle: saline with Tween-80): 0 of 6; survivor count (dose: 400.0 mg/kg/injection, schedule: Q04DX003 (ip), vehicle: saline with Tween-80): 0 of 6

How did the T/C (dose: 50.0 mg/kg/injection, schedule: Q01DX009 (ip), vehicle: water) turn out when `COc1cc2cc[n+](C)cc2cc1OC` was run?
The T/C was 125 and 128 % of control.

Which survivor count (dose: 50.0 mg/kg/injection, schedule: Q01DX009 (ip), vehicle: saline) does the source give for `CCCCCCCCC[N+]1(CC)CCCCC1` here?
Its survivor count is 0 of 6.

What about the survivor count [3] of the same molecule?
The survivor count was 0 of 6.

And the survivor count [4]?
Its survivor count is 0 of 6.

For `COc1cccc2c(NCCCCCCCCNc3c4ccccc4nc4c(OC)cccc34)c3ccccc3nc12`, which T/C (dose: 0.63 mg/kg/injection, schedule: Q01DX009 (ip), vehicle: other) is on record?
The T/C was 136 % of control.

And the T/C (dose: 1.25 mg/kg/injection, schedule: Q01DX009 (ip), vehicle: other)?
The T/C was 144 % of control.

What about the T/C (dose: 2.5 mg/kg/injection, schedule: Q01DX009 (ip), vehicle: other) of the same molecule?
The T/C was 145 % of control.

And the T/C (dose: 3.75 mg/kg/injection, schedule: Q01DX009 (ip), vehicle: other)?
Its T/C is 149 % of control.

And the T/C (dose: 7.5 mg/kg/injection, schedule: Q01DX009 (ip), vehicle: other)?
The T/C was 149 % of control.

What about the survivor count (dose: 10.0 mg/kg/injection, schedule: Q01DX009 (ip), vehicle: other) of the same molecule?
The survivor count was 6 of 6.

What about the survivor count (dose: 15.0 mg/kg/injection, schedule: Q01DX009 (ip), vehicle: other) of the same molecule?
Its survivor count is 6 of 6.

What about the survivor count (dose: 20.0 mg/kg/injection, schedule: Q01DX009 (ip), vehicle: lactic acid) of the same molecule?
Its survivor count is 0 of 6.

What about the survivor count (dose: 20.0 mg/kg/injection, schedule: Q01DX009 (ip), vehicle: other) of the same molecule?
Its survivor count is 4 of 6.

`S=c1[nH]c2cc(Cl)ccc2s1` was tested. Which survivor count [5] did it give?
Its survivor count is 6 of 6.

And the survivor count (dose: 400.0 mg/kg/injection, schedule: Q01DX009 (ip), vehicle: saline with Tween-80)?
Its survivor count is 2 of 6.

How did the survivor count (dose: 400.0 mg/kg/injection, schedule: Q01DX005 (ip), vehicle: Klucel (hydroxypropylcellulose) (HPC)) turn out when `COc1c(C)n(CCCCCCn2ccc(=O)c(OC)c2C)ccc1=O` was run?
Its survivor count is 2 of 6.

With `C#CCNC(=S)N/N=C(\C)c1ccccn1` as the molecule, how does the survivor count (dose: 50.0 mg/kg/injection, schedule: Q01DX009 (ip), vehicle: saline with Tween-80) read?
The survivor count was 0 of 6.

And the survivor count [6]?
Its survivor count is 0 of 6.

And the survivor count [5]?
Its survivor count is 0 of 6.

Which results are given for `O=C1CS(=O)(=O)C(c2ccc(Cl)cc2)N1N1C(=O)CS(=O)(=O)C1c1ccc(Cl)cc1` (configuration not stated)?
survivor count (dose: 50.0 mg/kg/injection, schedule: Q01DX005 (ip), vehicle: saline with Tween-80): 5 of 5; survivor count [1]: 6 of 6; survivor count [2]: 6 of 6

Which results are given for `CC1CN1C1=C(Cl)C(=O)C(N2CC2C)=C(Cl)C1=O` (configuration not stated)?
T/C (dose: 3.12 mg/kg/injection, schedule: Q01DX009 (ip), vehicle: Klucel (hydroxypropylcellulose) (HPC)): 129 % of control; T/C (dose: 6.25 mg/kg/injection, schedule: Q01DX009 (ip), vehicle: Klucel (hydroxypropylcellulose) (HPC)): 126 and 129 % of control; T/C (dose: 12.5 mg/kg/injection, schedule: Q01DX009 (ip), vehicle: Klucel (hydroxypropylcellulose) (HPC)): 127 and 132 % of control; T/C (dose: 25.0 mg/kg/injection, schedule: Q01DX009 (ip), vehicle: Klucel (hydroxypropylcellulose) (HPC)): 129 and 139 % of control

How did the survivor count [5] turn out when `O=C1CSC2(CCN(CCCN3c4ccccc4Sc4ccc(Cl)cc43)CC2)N1` was run?
Its survivor count is 0 of 6.

Which T/C (dose: 50.0 mg/kg/injection, schedule: Q01DX001 (ip), vehicle: other) does the source give for `O=c1[nH]c2ccc(Br)cc2c(=O)o1` here?
The T/C was 140 % of control.

`CC(=O)OCC1OC([S-])C(OC(C)=O)C(OC(C)=O)C1OC(C)=O.CC[PH+](CC)CC.CC[PH+](CC)CC.[Au].[Au]` (configuration not stated) was tested. Which T/C (dose: 2.5 mg/kg/injection, schedule: Q01DX009 (ip), vehicle: Klucel (hydroxypropylcellulose) (HPC)) did it give?
The T/C was 136 % of control.

And the T/C (dose: 5.0 mg/kg/injection, schedule: Q01DX009 (ip), vehicle: Klucel (hydroxypropylcellulose) (HPC))?
Its T/C is 133 % of control [5 of 6 alive].

What about the T/C (dose: 10.0 mg/kg/injection, schedule: Q01DX009 (ip), vehicle: Klucel (hydroxypropylcellulose) (HPC)) of the same molecule?
Its T/C is 142 % of control.

And the survivor count (dose: 20.0 mg/kg/injection, schedule: Q01DX009 (ip), vehicle: Klucel (hydroxypropylcellulose) (HPC))?
Its survivor count is 0 of 6.

Which survivor count [7] does the source give for `Cc1ccc(S(=O)(=O)OI(C#CC(C)(C)C)c2ccccc2)cc1` here?
Its survivor count is 6 of 6.

What about the survivor count (dose: 200.0 mg/kg/injection, schedule: Q01DX005 (ip), vehicle: Klucel (hydroxypropylcellulose) (HPC)) of the same molecule?
Its survivor count is 0 of 6.

For `C#CC(C)OCC(C)OC(C)=O` (configuration not stated), which survivor count (dose: 335.0 mg/kg/injection, schedule: Q01DX009 (ip), vehicle: saline with Tween-80) is on record?
Its survivor count is 3 of 6.

With `Cc1nnc(Cc2ccc([N+](=O)[O-])cc2)c2n[nH]c(C)c12` as the molecule, how does the survivor count (dose: 200.0 mg/kg/injection, schedule: Q04DX002 (ip), vehicle: Klucel (hydroxypropylcellulose) (HPC)) read?
Its survivor count is 6 of 6.

And the survivor count (dose: 400.0 mg/kg/injection, schedule: Q04DX002 (ip), vehicle: Klucel (hydroxypropylcellulose) (HPC))?
Its survivor count is 6 of 6.

With `O=C1C2=C(Nc3cc([N+](=O)[O-])ccc3N2)OC1c1c2ccccc2cc2ccccc12` (configuration not stated) as the molecule, how does the survivor count (dose: 240.0 mg/kg/injection, schedule: Q01DX005 (ip), vehicle: Klucel (hydroxypropylcellulose) (HPC)) read?
Its survivor count is 6 of 6.

Which survivor count [7] does the source give for `COc1cccc(C(Cc2ccccc2)Nc2ccccc2)c1OC` (configuration not stated) here?
The survivor count was 6 of 6.

Which results are given for `CCOC(=O)/N=[N+](\[O-])c1ccc(Br)cc1`?
survivor count (dose: 100.0 mg/kg/injection, schedule: Q01DX001 (ip), vehicle: Klucel (hydroxypropylcellulose) (HPC)): 2 of 6; survivor count [8]: 0 of 6; survivor count [9]: 1 of 6

Which results are given for `CCCCCCC(=O)/C=C/c1cccc(OCOCC)c1`?
T/C [6]: 138 % of control; T/C [5]: 126 % of control

`CCOC(=O)/N=[N+](\[O-])c1cccc(Br)c1` was tested. Which survivor count [8] did it give?
Its survivor count is 1 of 6.

What about the survivor count [9] of the same molecule?
Its survivor count is 0 of 6.

`CSC(=S)N/N=C\C(O)C(O)C(O)C(O)CO` (configuration not stated) was tested. Which survivor count (dose: 100.0 mg/kg/injection, schedule: Q04DX003 (ip), vehicle: saline) did it give?
The survivor count was 0 of 6.

And the survivor count (dose: 200.0 mg/kg/injection, schedule: Q04DX003 (ip), vehicle: saline)?
Its survivor count is 0 of 6.

And the survivor count (dose: 400.0 mg/kg/injection, schedule: Q04DX003 (ip), vehicle: saline)?
Its survivor count is 0 of 6.

Which results are given for `CCOC(=O)c1[nH]c(C)nc1/N=N/N(C)C`?
T/C [3]: 125 % of control; survivor count (dose: 400.0 mg/kg/injection, schedule: Q01DX009 (ip), vehicle: saline): 6 of 6

With `C[CH](C)[GeH]([CH](C)C)[CH](C)C` as the molecule, how does the survivor count [4] read?
Its survivor count is 5 of 6.

What does the source list for `CC(C)(C)CC(C)(C)NCC(O)COc1ccc(C(C)(C)c2ccc(OCC(O)CNC(C)(C)CC(C)(C)C)cc2)cc1` (configuration not stated)?
survivor count (dose: 12.5 mg/kg/injection, schedule: Q01DX009 (ip), vehicle: other): 5 of 6; survivor count (dose: 12.5 mg/kg/injection, schedule: Q04DX003 (ip), vehicle: other): 6 of 6; survivor count (dose: 25.0 mg/kg/injection, schedule: Q01DX009 (ip), vehicle: other): 2 of 6; survivor count (dose: 25.0 mg/kg/injection, schedule: Q04DX003 (ip), vehicle: other): 6 of 6; survivor count (dose: 50.0 mg/kg/injection, schedule: Q04DX003 (ip), vehicle: other): 3 of 6
